Laboratory results as given in PubChem BioAssay AID720711 (National Center for Advancing Translational Sciences (NCATS), 2013).
About 290 (0.081%) of roughly 360,000 compounds were called active. Inconclusive means that the source gave no clear call. Such entries were picked first, then a sample of the others. Calls follow the shape of the dose curve; as a rule, active = well fitted activation curve with a large enough effect; inconclusive = small, poorly fitted or top-dose-only effect; inactive = no such curve, though single readings can be large or run the other way. Potencies beside an inconclusive call are fits to weak or partial responses and may not hold up.

Sequences of proteins named here, by UniProt entry; tags and fusion partners are left off.
UniProt Q8WZA2, whole entry, looked up: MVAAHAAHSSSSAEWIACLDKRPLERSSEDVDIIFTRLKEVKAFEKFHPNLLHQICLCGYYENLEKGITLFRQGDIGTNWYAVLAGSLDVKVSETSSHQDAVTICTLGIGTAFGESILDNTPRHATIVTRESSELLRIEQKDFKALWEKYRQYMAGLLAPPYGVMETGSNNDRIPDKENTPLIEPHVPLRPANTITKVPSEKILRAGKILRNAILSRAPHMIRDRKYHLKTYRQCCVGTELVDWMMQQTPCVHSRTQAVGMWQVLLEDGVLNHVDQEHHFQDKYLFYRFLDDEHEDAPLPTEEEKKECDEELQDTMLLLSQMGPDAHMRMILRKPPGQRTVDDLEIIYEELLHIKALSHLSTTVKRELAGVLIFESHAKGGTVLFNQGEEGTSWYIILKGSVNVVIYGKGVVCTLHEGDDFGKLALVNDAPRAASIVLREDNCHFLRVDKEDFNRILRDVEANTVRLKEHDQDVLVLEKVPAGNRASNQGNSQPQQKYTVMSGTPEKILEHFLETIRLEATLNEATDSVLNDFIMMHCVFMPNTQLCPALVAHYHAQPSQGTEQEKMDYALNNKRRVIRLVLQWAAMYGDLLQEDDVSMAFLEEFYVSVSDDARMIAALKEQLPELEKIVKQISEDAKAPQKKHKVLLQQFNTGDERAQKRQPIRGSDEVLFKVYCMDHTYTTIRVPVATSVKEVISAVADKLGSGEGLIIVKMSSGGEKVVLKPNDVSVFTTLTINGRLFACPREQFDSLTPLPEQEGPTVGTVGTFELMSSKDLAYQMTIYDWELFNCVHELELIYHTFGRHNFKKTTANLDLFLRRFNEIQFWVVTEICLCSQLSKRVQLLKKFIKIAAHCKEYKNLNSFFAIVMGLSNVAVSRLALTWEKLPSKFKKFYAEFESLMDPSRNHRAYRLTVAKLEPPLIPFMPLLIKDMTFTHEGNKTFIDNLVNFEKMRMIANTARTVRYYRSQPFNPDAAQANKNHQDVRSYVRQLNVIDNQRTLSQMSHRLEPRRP

Target: Rap guanine nucleotide exchange factor 4 (Homo sapiens) (UniProt Q8WZA2)
Experiment: qHTS for Agonist of cAMP-regulated guanine nucleotide exchange factor 4 (EPAC2): primary screen; also: nearly all actives have a fitted effect of over 50% in size
Settings: biochemical qHTS; Potency: EPAC2 activation unless noted; activation: at 154 µM (top of the series), 100% = 6.5 mM cAMP response unless noted
Procedure, shortened: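 Compounds were titrated in qHTS against a Rap1B-BODIPY-GDP (250 nM) complex with EPAC2 (100 nM) and GDP (50 uM). BODIPY-GDP release tracked at 480/540 nm over 30 min at room temperature, normalized to 6.5 mM cAMP.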
Potency is read from the fitted curve at half-maximal effect.

Structure (SMILES)	activation	Potency
COc1ccc2oc(=O)cc(CN3CCN(Cc4ccccc4)CC3)c2c1	inactive: 8.65%	–
O=C(Cn1cnc2nc3n(c2c1=O)CCC3)NCc1ccccc1	–	inconclusive: 112 µM [activator, single point]
CCOc1ccc(N(CC(=O)NCCSCc2ccccc2)S(=O)(=O)c2ccccc2)cc1	inactive: 12.9%	–
CCOC(=O)C1=C(C)OC2(O)c3ccccc3C(=O)C12O (stereo not given)	–	inconclusive: 100 µM [activator, partial curve]
CCCC1C(c2ccco2)NC(c2ccco2)CC1(C)O (stereo not given)	–	inconclusive: 112 µM [activator, partial curve]
COc1cc(C=c2c3ccccc3n3c2cc(-c2ccccc2)[n+]3C)cc(OC)c1OC	–	inconclusive: 79.4 µM [activator, partial curve]
CCN(CC(=O)Nc1ccc(NC(C)=O)cc1)C(=O)CN1C(=O)C2CCCCC2C1=O (stereo not given)	inactive: -3.45%	–
O=C(Nc1ccc(C2CCCCC2)cc1)C1CCCN(c2ncccn2)C1 (stereo not given)	–	inconclusive: 112 µM [activator, single point]
O=C(Nc1ccccn1)c1nc(-c2ccccc2)n(-c2ccccc2)n1	inactive: -0.927%	–
Cc1ccc(S(=O)(=O)NC(C)(C)CSc2nnc(N)s2)cc1	inactive: 2.01%	–
CCN(CC)CCCN(C(=O)c1cccs1)c1nc(-c2ccc(OC)cc2)cs1	inactive: -3.38%	–
CN(C)c1ccc(CN2CCC(C(=O)NC(c3ccc(Cl)cc3)c3cnccn3)CC2)cc1 (stereo not given)	inactive: 9.04%	–
O=C(N/N=C/c1ccc(Br)cc1)c1ccc(Br)o1	inactive: -1.42%	–
CCn1c(CSCc2ccc(Cl)cc2)n[nH]c1=S	inactive: 3.62%	–
CCOC=C1C(=O)N(C(C)=O)c2cc(OC)c(OC)cc21	–	inconclusive: 112 µM [activator, partial curve]
Cc1ccc(SCc2nnc(N)s2)cc1	–	inconclusive: 112 µM [activator, single point]
O=C(Nc1ccc(Nc2ccncc2)cc1)c1ccc(Nc2ccnc3ccc([N+](=O)[O-])cc23)cc1[N+](=O)[O-]	–	inconclusive: 50.1 µM [activator, partial curve]
CC(NC(=O)COC(=O)c1ccc(Br)o1)c1ccccc1 (stereo not given)	inactive: -2.94%	–
O=C(CN1CCN(S(=O)(=O)c2ccc(F)cc2)CC1)c1ccc(O)c(O)c1	–	inconclusive: 112 µM [activator, single point]
Cc1c2cn[nH]c(=O)c2c(C)n1Cc1ccc(F)cc1	–	inconclusive: 3.16 µM [activator, full curve, poor fit]
O=C(c1ccc(C#Cc2ccccc2)o1)N1CCN(c2ccccn2)CC1	–	inconclusive: 100 µM [activator, single point]
O=C1Nc2ccccc2C1(O)c1ccccc1 (stereo not given)	inconclusive: 32.5% [activator]	–
COc1ccc(N2CCN(C(c3cccc(OC)c3OC)c3nnnn3C3CCCC3)CC2)cc1 (stereo not given)	inactive: 20.3%	–
Cc1cccn2c(=O)c(/C=C3\SC(=S)N(CC(C)C)C3=O)c(NCCCOC(C)C)nc12	–	inconclusive: 126 µM [activator, single point]

21 of the compounds above, in markdown.

| Structure (SMILES) | activation | Potency |
| --- | --- | --- |
| COc1ccc2oc(=O)cc(CN3CCN(Cc4ccccc4)CC3)c2c1 | inactive: 8.65% | – |
| O=C(Cn1cnc2nc3n(c2c1=O)CCC3)NCc1ccccc1 | – | inconclusive: 112 µM [activator, single point] |
| CCOc1ccc(N(CC(=O)NCCSCc2ccccc2)S(=O)(=O)c2ccccc2)cc1 | inactive: 12.9% | – |
| CCOC(=O)C1=C(C)OC2(O)c3ccccc3C(=O)C12O (stereo not given) | – | inconclusive: 100 µM [activator, partial curve] |
| CCCC1C(c2ccco2)NC(c2ccco2)CC1(C)O (stereo not given) | – | inconclusive: 112 µM [activator, partial curve] |
| COc1cc(C=c2c3ccccc3n3c2cc(-c2ccccc2)[n+]3C)cc(OC)c1OC | – | inconclusive: 79.4 µM [activator, partial curve] |
| O=C(Nc1ccc(C2CCCCC2)cc1)C1CCCN(c2ncccn2)C1 (stereo not given) | – | inconclusive: 112 µM [activator, single point] |
| O=C(Nc1ccccn1)c1nc(-c2ccccc2)n(-c2ccccc2)n1 | inactive: -0.927% | – |
| Cc1ccc(S(=O)(=O)NC(C)(C)CSc2nnc(N)s2)cc1 | inactive: 2.01% | – |
| CCN(CC)CCCN(C(=O)c1cccs1)c1nc(-c2ccc(OC)cc2)cs1 | inactive: -3.38% | – |
| CN(C)c1ccc(CN2CCC(C(=O)NC(c3ccc(Cl)cc3)c3cnccn3)CC2)cc1 (stereo not given) | inactive: 9.04% | – |
| O=C(N/N=C/c1ccc(Br)cc1)c1ccc(Br)o1 | inactive: -1.42% | – |
| CCn1c(CSCc2ccc(Cl)cc2)n[nH]c1=S | inactive: 3.62% | – |
| Cc1ccc(SCc2nnc(N)s2)cc1 | – | inconclusive: 112 µM [activator, single point] |
| CC(NC(=O)COC(=O)c1ccc(Br)o1)c1ccccc1 (stereo not given) | inactive: -2.94% | – |
| O=C(CN1CCN(S(=O)(=O)c2ccc(F)cc2)CC1)c1ccc(O)c(O)c1 | – | inconclusive: 112 µM [activator, single point] |
| Cc1c2cn[nH]c(=O)c2c(C)n1Cc1ccc(F)cc1 | – | inconclusive: 3.16 µM [activator, full curve, poor fit] |
| O=C(c1ccc(C#Cc2ccccc2)o1)N1CCN(c2ccccn2)CC1 | – | inconclusive: 100 µM [activator, single point] |
| O=C1Nc2ccccc2C1(O)c1ccccc1 (stereo not given) | inconclusive: 32.5% [activator] | – |
| COc1ccc(N2CCN(C(c3cccc(OC)c3OC)c3nnnn3C3CCCC3)CC2)cc1 (stereo not given) | inactive: 20.3% | – |
| Cc1cccn2c(=O)c(/C=C3\SC(=S)N(CC(C)C)C3=O)c(NCCCOC(C)C)nc12 | – | inconclusive: 126 µM [activator, single point] |

Next part.

Structure (SMILES)	activation	Potency
c1ccc(CSc2nnc(-c3c[nH]c4ccccc34)o2)cc1	–	inconclusive: 100 µM [activator, partial curve]
N#Cc1cccc(NC(=O)CSc2ccc3c4c(cccc24)C(=O)c2ccccc2-3)c1	–	inconclusive: 79.4 µM [activator, partial curve]
Cc1cc(=O)oc2ccc(OC(=O)CN3C(=O)c4cccc([N+](=O)[O-])c4C3=O)cc12	–	inconclusive: 112 µM [activator, single point]
O=C(CN1CCN(C(=O)c2ccc(-c3nc4ccccc4s3)o2)CC1)Nc1ccc(F)cc1	–	inconclusive: 35.5 µM [activator, single point]
Cc1cccn2c(=O)c3cc(C(=O)NC4CCS(=O)(=O)C4)sc3nc12 (stereo not given)	inconclusive: 16.1% [activator]	–
COC(=O)c1ccc(/C=C/c2c(-c3ccsc3)oc3ccc(N4CCOCC4)cc23)cc1	–	inconclusive: 28.2 µM [activator, partial curve]
Cc1nnc(-c2cccc(Br)c2)c2cn(-c3ccccc3)nc12	–	inconclusive: 112 µM [activator, single point]
C#Cc1ccc([C@@H]2C=C(C(=O)N3CCOCC3)O[C@H](OCC)[C@H]2CCCO)cc1	inactive: 0.706%	–
Cc1ccc(/C=N/N2CCN(Cc3cccc4ccccc34)CC2)o1	–	inconclusive: 112 µM [activator, partial curve]
NC(=O)c1cc2ccc(O)cc2oc1=NCc1ccccc1	–	active: 100 µM
COC(=O)/C(N=Nc1cccc(C(F)(F)F)c1)=C(\C)O	inconclusive: 31.3% [activator] [at 15.6 µM, 100% = 6.5 mM cAMP response]	–
Cc1ccc(C(=O)O)cc1-c1ccc(/C=C2/NC(=O)N(c3ccccc3)C2=O)o1	inactive: -1.88%	–
COc1ccc(Br)cc1C=NNS(=O)(=O)c1ccc(C)cc1	–	inconclusive: 14.1 µM [activator, full curve, poor fit]
CC1CC(C)(C)NC(=S)N1CCCC(=O)Nc1ccc(Br)cc1 (stereo not given)	inactive: 5.41%	–
O=C(N/N=C/c1cccc(O)c1)c1ccccc1O	–	inconclusive: 126 µM [activator, single point]
CC(=O)/C(N=Nc1cc(C)ccc1O)=C(\C)O	–	inconclusive: 50.1 µM [activator, single point]
COc1ccc(NC(=S)NC(=O)C2CCCCC2)cc1	inactive: 7.33%	–
Cc1ccc(S(=O)(=O)N2CCCN(C)c3nc4ccccc4nc32)cc1	–	inconclusive: 31.6 µM [activator, partial curve, poor fit]
Cc1ccc([N+](=O)[O-])c(OCCCN2CCCCCC2)c1	inconclusive: 32.8% [activator]	–
CC1CCCN(c2ccc(/C=C(\C#N)c3nn(-c4ccccc4)c(N)c3C#N)cc2[N+](=O)[O-])C1 (stereo not given)	–	inconclusive: 112 µM [activator, single point]
Cc1cc(=O)n2c3c(cccc13)CCC2	–	inconclusive: 126 µM [activator, single point]
CCCN1CCN(c2ncnc3scc(C4COc5ccccc5O4)c23)CC1 (stereo not given)	–	inconclusive: 31.6 µM [activator, full curve, poor fit]
NS(=O)(=O)c1ccc(CNc2ccc3ccccc3n2)cc1	inactive: 7.45%	–
CON(c1nc(Cl)nc(N(C)C)n1)S(=O)(=O)c1ccccc1Cl	–	inconclusive: 50.1 µM [activator, full curve]

Structure (SMILES)	activation	Potency
CCCC(=O)O[C@@H]1C[C@@H](C)N(C(=O)c2ccccc2)c2ccc(C)cc21	inactive: -20.5%	–
C#CCOCCOCCOCCNc1nc(N2CCN(C(=O)CCCCCCCCCCNC(=O)[C@H](CO)n3cc(CCCSC)nn3)CC2)nc(N2CCN(C(=O)CCCCCCCCCCNC(=O)[C@H](CCCCN)n3cc(CCO)nn3)CC2)n1	–	inconclusive: 100 µM [activator, partial curve]
CCCc1c(O)nc(SC2CC(=O)N(c3ccc(C)c(Cl)c3)C2=O)[nH]c1=O (stereo not given)	inactive: 2.55%	–
CCN1C(=S)SC(=O)C1=C1C=C(C)N(Cc2ccco2)C(C)=C1	–	inconclusive: 56.2 µM [activator, partial curve]
CCOC(=O)C(Cc1ccc(NC(=O)/C(=C\c2ccccc2)NC(=O)c2ccccc2)cc1)N1C(=O)c2ccccc2C1=O (stereo not given)	–	inconclusive: 126 µM [activator, single point]
Cc1ccc(CN(CC2CCCO2)C(=O)CN2C(=O)C(C(C)C)Oc3ccccc32)o1 (stereo not given)	–	inconclusive: 50.1 µM [activator, single point]
O=C(O)COc1ccc(/C=C/c2nc3ccc([N+](=O)[O-])cc3s2)cc1	inactive: 4.39%	–
CCOc1cc(/C=C(\C#N)c2nc(-c3cccs3)c(NC(C)=O)s2)ccc1O	–	inconclusive: 31.6 µM [activator, single point]
COc1ccc(-n2nnnc2CNC(=O)c2c(-c3ccccc3Cl)noc2C)cc1	inactive: 2.15%	–
O=S(=O)(Nc1ccc(Cl)cc1NS(=O)(=O)c1ccccc1)c1ccccc1	inactive: 7.06%	–
CN1CCN(CC(O)COc2ccccc2)CC1 (stereo not given)	–	inconclusive: 100 µM [activator, partial curve]
O=C(NCCC(F)(F)F)c1cccc2c(-c3ccc(F)c(F)c3)coc12	inactive: 2.81%	–
CCc1ccc(OCC(=O)NC(NC(=S)Nc2ccccc2OC)C(Cl)(Cl)Cl)cc1 (stereo not given)	–	inconclusive: 79.4 µM [activator, partial curve]
COc1ccccc1Nc1nc(-c2cccs2)cs1	–	inconclusive: 112 µM [activator, single point]
O=C(/C=C/c1ccco1)N1CCC(Cc2ccccc2)CC1	inactive: 13.3%	–
CC(C)Oc1ccc(CCc2n[nH]c(=S)n2Cc2ccccc2)cc1	–	inconclusive: 35.5 µM [activator, partial curve]
O=C(N/N=C/c1cccc([N+](=O)[O-])c1)c1cccs1	–	inconclusive: 126 µM [activator, single point]
C(=N\N1CCN(Cc2cccc3ccccc23)CC1)/c1ccco1	–	inconclusive: 89.1 µM [activator, partial curve]
O=C1/C(=C/Nc2ccc3c(c2)OCO3)CCc2ccccc21	–	inconclusive: 79.4 µM [activator, partial curve]
CCCOc1ccc(-c2nn(-c3ccccc3)cc2/C=C2\SC(=S)N(C3CCS(=O)(=O)C3)C2=O)cc1 (stereo not given)	–	inconclusive: 112 µM [activator, partial curve]
NS(=O)(=O)c1ccc(NC(=O)Cc2c(F)cccc2Cl)cc1	inactive: -2.03%	–
CN1C(=O)C2(OCC(COc3ccc(Cl)cc3)O2)c2ccccc21 (stereo not given)	–	inconclusive: 112 µM [activator, partial curve]
